Measured values taken from article PMC10988696, “FLIM‐FRET‐based analysis of S100A11/annexin interactions in living cells” (FEBS Open Bio, 2024).

Protein sequences, listed by entry. Tags and fused reporters are not part of them. Lines headed by an entry give the natural chain unless they say otherwise; changes in a name come on top.
UniProt P07355: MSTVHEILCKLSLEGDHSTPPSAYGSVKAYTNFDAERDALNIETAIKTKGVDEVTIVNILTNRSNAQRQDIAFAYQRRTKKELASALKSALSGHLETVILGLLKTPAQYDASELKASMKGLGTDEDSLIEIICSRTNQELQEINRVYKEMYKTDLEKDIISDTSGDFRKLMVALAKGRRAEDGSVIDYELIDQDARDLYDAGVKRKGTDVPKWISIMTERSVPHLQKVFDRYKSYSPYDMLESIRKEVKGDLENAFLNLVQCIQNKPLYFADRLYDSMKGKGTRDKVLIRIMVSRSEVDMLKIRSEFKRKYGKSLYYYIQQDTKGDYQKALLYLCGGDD
UniProt P31949: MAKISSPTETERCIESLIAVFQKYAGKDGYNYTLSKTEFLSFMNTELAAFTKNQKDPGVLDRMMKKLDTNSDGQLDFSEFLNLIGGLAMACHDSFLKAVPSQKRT

Biological target: T1, EGFP-ANXA2 (human, UniProt P07355 1-339)
T1 construct: human annexin A2 (ANXA2) with the fluorescent protein tag in the altered orientation (EGFP-ANXA2); The cloning of this orientation is not described in the methods; source: U2OS or HEK293T cells, transfected (calcium phosphate), in living cells; not shown: EGFP, N-terminal, kept
Assay: FRET or BRET; FLIM-FRET (EGFP donor lifetime, mCherry acceptor) in living HEK293T cells co-transfected with both constructs

- binding: binds weakly
Substance: S100A11ΔCa-mCherry (from UniProt P31949)

Results are given in words; binding and its absence hold for the method and conditions named. In cells and extracts the contact can be indirect. Binding calls can cover weak binding; strength is not graded here.
